We go through two molecules from US20230348603A1.

Protein sequences, listed by entry. Tags and fused reporters are not part of them. Lines headed by an entry give the natural chain unless they say otherwise; changes in a name come on top.
UniProt Q9Y279: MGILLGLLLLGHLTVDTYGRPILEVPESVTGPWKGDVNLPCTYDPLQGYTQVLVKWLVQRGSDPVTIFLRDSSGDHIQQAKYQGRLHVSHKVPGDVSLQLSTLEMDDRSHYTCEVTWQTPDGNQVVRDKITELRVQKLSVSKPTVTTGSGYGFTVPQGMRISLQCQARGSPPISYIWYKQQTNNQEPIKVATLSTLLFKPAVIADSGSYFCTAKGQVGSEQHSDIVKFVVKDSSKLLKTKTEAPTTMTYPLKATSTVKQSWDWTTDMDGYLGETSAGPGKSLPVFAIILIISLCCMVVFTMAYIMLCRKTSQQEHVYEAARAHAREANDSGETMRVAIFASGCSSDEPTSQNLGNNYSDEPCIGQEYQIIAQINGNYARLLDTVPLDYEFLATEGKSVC

Results are given in words; binding and its absence hold for the method and conditions named. Some entries that bind do so weakly or less than the wild type. For some of these results: Tags and fused reporters may be left off the sequences shown.

Assay [1] has as its target Human VSIG4-L-His (human) (UniProt Q9Y279). Kind of assay: BLI (Octet).
Assay [2] deals with T1, Cynomolgus Monkey VSIG4-L-His (cynomolgus monkey).
T1 sequence: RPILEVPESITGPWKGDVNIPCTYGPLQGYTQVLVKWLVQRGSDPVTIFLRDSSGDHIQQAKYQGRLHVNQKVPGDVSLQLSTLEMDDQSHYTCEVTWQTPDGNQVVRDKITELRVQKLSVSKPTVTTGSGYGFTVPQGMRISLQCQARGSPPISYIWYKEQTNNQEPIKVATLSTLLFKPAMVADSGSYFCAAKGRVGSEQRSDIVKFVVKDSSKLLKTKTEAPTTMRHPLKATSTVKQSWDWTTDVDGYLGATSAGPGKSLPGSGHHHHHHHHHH
Kind of assay: BLI (Octet).

B1: 1C6.D6 murine hybridoma antibody (antibody, V domains shown)
VH: QVQLQQPGAEMVRPGTSVKLSCKASGYTFTSYWMHWVKQRPGQGLEWIGKIDPSHNKTHYIQKFEDKATLTVDKSSSTAYMHLNSLTSEDSAVYYCVTWDGDFLYWGQGTLVTVSA
VL: NIVLTQSPASLTVSLGQRATISCRASESVDSYGNSFMHWYQQKPGQPPKLLIYITSNLQSGVPARFSGGGSRTDFTLTIDPVEADDAATYYCQQNNEDPWTFGGGTKLEIK
As to B1, the binding entry in assay [1] and in assay [2] was “binds” each time.

B2: 16F6.E1 murine hybridoma antibody (antibody, V domains shown)
VH: QVQLQQPGAEMVRPGASLKLSCKASGYTFTSYWMHWVKQRPGQGLEWIGKIDPSKNTTHYNQNFRDKATLTVDRSSSTAYMQLNSLTSEDSAVYFCVTWDGDFTYWGQGTLVTISA
VL: NIVLTQSPPSLAVSLGQRATISCRASESVDSYGNSFMHWYQQKPGQPPKLLIYLASNLESGVPARFSGSGSRTDFTLTIDPVEADDAATYFCHQNNEDPWTFGGGTKLEIK
For B2, the binding result in assay [1] and in assay [2] was “binds” each time.
